PubChem BioAssay AID686938 | Drosophila RNAi Screening Center | 2013
The screen tested about 23,000 reagents; this is a random part of those that have a named target and a result. Of all reagents, 75 (0.33%) got an active call. 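Raw plate signals without normalisation; calls rest on plate z-scores that were not deposited; ratio present for only 364 wells.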 Entries without a mark were called inactive. A plus sign joins genes that one reagent is predicted to hit. The record does not give: the dose of the treatment.

Purpose: 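Looking for CRAC channel components and the factors controlling them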 (primary screen)
Cell system: Drosophila S2R+ cells
Reagents: long dsRNA against Drosophila genes, about 0.25 µg dsRNA per well, roughly 10,000 cells
Time to read-out: 5 days of knock-down before the calcium assay
Treatment: thapsigargin (SERCA pump blocker) to empty calcium stores; entry signal taken 4 min after adding it
Measurement: 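Per-well fluo-4 fluorescence in two replicates, unnormalised, measured in resting cells and 4 min after store depletion by the SERCA blocker thapsigargin; ratio of the two present in few wells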
Direction: calcium entry signal: higher = stronger calcium signal after store depletion; resting calcium signal: higher = higher resting calcium signal
Units: calcium entry signal in fluorescence units; resting calcium signal in fluorescence units
Active means: 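Hit if the duplicate-averaged plate z-score for entry over resting signal is under −3; wells with weak total dye signal (Fmax z < −2) or more than 5 off-targets removed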
Meaning of the calls: active = strongly reduced calcium entry; inactive = no strong reduction

After knock-down of CG14327 (GeneID 42118) [DRSC14806], the screen gave calcium entry signal, replicate 1 = 3.12e7; calcium entry signal, replicate 2 = 5.55e7; resting calcium signal, replicate 1 = 1.73e7; resting calcium signal, replicate 2 = 5.99e7.
For c11.1 (GeneID 53436) [DRSC18749] the deposit lists calcium entry signal, replicate 1 = 3.27e7; calcium entry signal, replicate 2 = 4.88e7; resting calcium signal, replicate 1 = 1.65e7; resting calcium signal, replicate 2 = 2.07e7.
MstProx (GeneID 40890) [DRSC12458] gave calcium entry signal, replicate 1 = 3.53e7; calcium entry signal, replicate 2 = 5.34e7; resting calcium signal, replicate 1 = 1.82e7; resting calcium signal, replicate 2 = 2.56e7.
With knock-down of MstProx (GeneID 40890) [DRSC12601], the record shows calcium entry signal, replicate 1 = 2.85e7; calcium entry signal, replicate 2 = 1.96e7; resting calcium signal, replicate 1 = 1.42e7; resting calcium signal, replicate 2 = 1.03e7.
Or69a (GeneID 2768964) [DRSC11243] gave calcium entry signal, replicate 1 = 2.91e7; calcium entry signal, replicate 2 = 4.21e7; resting calcium signal, replicate 1 = 1.47e7; resting calcium signal, replicate 2 = 1.85e7.
With knock-down of CG32984 (GeneID 34218) [DRSC21602] the results were calcium entry signal, replicate 1 = 2.30e7; calcium entry signal, replicate 2 = 3.06e7; resting calcium signal, replicate 1 = 1.27e7; resting calcium signal, replicate 2 = 1.36e7.
With knock-down of AttD (GeneID 42122) [DRSC16272] the results were calcium entry signal, replicate 1 = 6.38e7; calcium entry signal, replicate 2 = 2.58e7; resting calcium signal, replicate 1 = 3.13e7; resting calcium signal, replicate 2 = 1.40e7.
For Rpp20 + CG33932 [DRSC19467], the entry reads calcium entry signal, replicate 1 = 2.53e7; calcium entry signal, replicate 2 = 3.81e7; resting calcium signal, replicate 1 = 1.33e7; resting calcium signal, replicate 2 = 1.56e7.
With knock-down of e(r) (GeneID 43951) [DRSC18768] the results were calcium entry signal, replicate 1 = 3.27e7; calcium entry signal, replicate 2 = 3.28e7; resting calcium signal, replicate 1 = 1.68e7; resting calcium signal, replicate 2 = 1.59e7.

Just “resting calcium signal, replicate 2”, for 4 of the entries above:
MstProx (GeneID 40890) [DRSC12458] = 2.56e7
MstProx (GeneID 40890) [DRSC12601] = 1.03e7
Or69a (GeneID 2768964) [DRSC11243] = 1.85e7
CG32984 (GeneID 34218) [DRSC21602] = 1.36e7

Continued:
After knock-down of SWIP (GeneID 32594) [DRSC19540], the screen gave calcium entry signal, replicate 1 = 3.96e7; calcium entry signal, replicate 2 = 2.40e7; resting calcium signal, replicate 1 = 2.03e7; resting calcium signal, replicate 2 = 1.06e7.
Against UQCR-11L (GeneID 246560) [DRSC22166] the deposit lists calcium entry signal, replicate 1 = 3.38e7; calcium entry signal, replicate 2 = 5.07e7; resting calcium signal, replicate 1 = 1.64e7; resting calcium signal, replicate 2 = 2.54e7.
Silencing of pic (GeneID 41611) [DRSC16639] resulted in: calcium entry signal, replicate 1 = 2.51e7; calcium entry signal, replicate 2 = 3.63e7; resting calcium signal, replicate 1 = 1.15e7; resting calcium signal, replicate 2 = 1.71e7.
For CG12826 (GeneID 35710) [DRSC06175] the deposit lists calcium entry signal, replicate 1 = 4.86e7; calcium entry signal, replicate 2 = 1.70e7; resting calcium signal, replicate 1 = 2.36e7; resting calcium signal, replicate 2 = 8.96e6.
For CG32512 (GeneID 33085) [DRSC20519], the values are calcium entry signal, replicate 1 = 3.72e7; calcium entry signal, replicate 2 = 5.06e7; resting calcium signal, replicate 1 = 2.31e7; resting calcium signal, replicate 2 = 2.45e7.
CG32512 (GeneID 33085) [DRSC20551] showed calcium entry signal, replicate 1 = 3.14e7; calcium entry signal, replicate 2 = 4.39e7; resting calcium signal, replicate 1 = 2.10e7; resting calcium signal, replicate 2 = 2.20e7.
Silencing of CG32512 (GeneID 33085) [DRSC21401] gave: calcium entry signal, replicate 1 = 3.48e7; calcium entry signal, replicate 2 = 3.55e7; resting calcium signal, replicate 1 = 2.00e7; resting calcium signal, replicate 2 = 1.69e7.
CG1909 (GeneID 43800) [DRSC17150] gave calcium entry signal, replicate 1 = 5.23e7; calcium entry signal, replicate 2 = 4.99e7; resting calcium signal, replicate 1 = 2.30e7; resting calcium signal, replicate 2 = 2.28e7.
Depletion of CG33268 (GeneID 2768979) [DRSC10143] resulted in: calcium entry signal, replicate 1 = 3.09e7; calcium entry signal, replicate 2 = 3.49e7; resting calcium signal, replicate 1 = 1.66e7; resting calcium signal, replicate 2 = 1.55e7.
For CG14431 (GeneID 31639) [DRSC17925], the entry reads calcium entry signal, replicate 1 = 3.49e7; calcium entry signal, replicate 2 = 4.92e7; resting calcium signal, replicate 1 = 1.93e7; resting calcium signal, replicate 2 = 2.12e7.
With knock-down of CG14431 (GeneID 31639) [DRSC17926], the screen gave calcium entry signal, replicate 1 = 3.54e7; calcium entry signal, replicate 2 = 4.31e7; resting calcium signal, replicate 1 = 2.15e7; resting calcium signal, replicate 2 = 1.89e7.
Depletion of ken (GeneID 37785) [DRSC04696] gave: calcium entry signal, replicate 1 = 2.10e7; resting calcium signal, replicate 1 = 1.32e7.
ken (GeneID 37785) [DRSC23196] showed calcium entry signal, replicate 1 = 5.07e7; calcium entry signal, replicate 2 = 3.25e7; resting calcium signal, replicate 1 = 2.59e7; resting calcium signal, replicate 2 = 1.74e7.
